Results reported in PMC8009681.
These are yes or no findings as the source states them, for the method shown. Binding can be weak; no strength is given. For some assays here: Where a sequence is shown, tags or fusion partners need not be part of it. For some assays here: In cells and extracts the contact can be indirect. Blank lines part the entries; values can stand above or below the molecule they belong to.

How the values were obtained:
[1] = molecular target: T1, AGO1 (endogenous) (Arabidopsis thaliana (endogenous in seedlings)) (UniProt O04379); assay: co-IP; 4-day-old dark-grown Arabidopsis seedlings; total soluble protein, αAGO1 bound to protein A-coated magnetic beads, blots with αAGO1 and αGFP
T1 sequence: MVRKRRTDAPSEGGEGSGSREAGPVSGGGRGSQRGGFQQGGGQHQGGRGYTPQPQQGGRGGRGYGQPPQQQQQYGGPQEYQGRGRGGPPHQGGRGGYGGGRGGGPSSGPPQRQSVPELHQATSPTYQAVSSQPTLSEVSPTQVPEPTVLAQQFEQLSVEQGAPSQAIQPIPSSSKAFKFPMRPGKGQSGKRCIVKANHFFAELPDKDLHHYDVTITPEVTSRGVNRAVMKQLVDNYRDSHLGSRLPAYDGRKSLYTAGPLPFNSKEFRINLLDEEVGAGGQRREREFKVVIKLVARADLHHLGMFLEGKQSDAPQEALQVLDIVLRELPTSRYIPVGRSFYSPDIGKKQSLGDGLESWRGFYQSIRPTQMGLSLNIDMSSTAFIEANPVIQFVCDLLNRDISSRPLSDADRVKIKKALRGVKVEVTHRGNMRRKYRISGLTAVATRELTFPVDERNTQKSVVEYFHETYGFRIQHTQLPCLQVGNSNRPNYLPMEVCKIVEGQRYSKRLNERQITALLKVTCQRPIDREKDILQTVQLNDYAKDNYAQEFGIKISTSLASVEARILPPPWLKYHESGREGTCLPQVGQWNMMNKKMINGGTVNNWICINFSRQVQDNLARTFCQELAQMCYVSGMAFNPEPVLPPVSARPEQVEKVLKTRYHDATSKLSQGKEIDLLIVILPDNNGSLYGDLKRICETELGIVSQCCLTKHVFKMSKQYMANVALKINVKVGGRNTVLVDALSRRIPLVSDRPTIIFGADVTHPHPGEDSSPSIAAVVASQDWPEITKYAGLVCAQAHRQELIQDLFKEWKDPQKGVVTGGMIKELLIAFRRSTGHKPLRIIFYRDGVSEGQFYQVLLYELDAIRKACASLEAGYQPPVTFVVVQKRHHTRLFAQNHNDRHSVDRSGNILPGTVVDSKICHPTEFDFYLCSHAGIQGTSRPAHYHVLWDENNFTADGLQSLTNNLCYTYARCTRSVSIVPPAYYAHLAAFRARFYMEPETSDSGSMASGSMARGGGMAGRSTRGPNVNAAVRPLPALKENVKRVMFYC

[2] = molecular target: T2, phyA-BD (Arabidopsis thaliana) (UniProt P14712); assay: two-hybrid; growth assay, AH109, CSM LTH- plates with 20 μM phycocyanobilin and 3-AT (5, 10 or 30 mM by panel), R light (660 nm; phyA Pfr), 26°C
T2 sequence: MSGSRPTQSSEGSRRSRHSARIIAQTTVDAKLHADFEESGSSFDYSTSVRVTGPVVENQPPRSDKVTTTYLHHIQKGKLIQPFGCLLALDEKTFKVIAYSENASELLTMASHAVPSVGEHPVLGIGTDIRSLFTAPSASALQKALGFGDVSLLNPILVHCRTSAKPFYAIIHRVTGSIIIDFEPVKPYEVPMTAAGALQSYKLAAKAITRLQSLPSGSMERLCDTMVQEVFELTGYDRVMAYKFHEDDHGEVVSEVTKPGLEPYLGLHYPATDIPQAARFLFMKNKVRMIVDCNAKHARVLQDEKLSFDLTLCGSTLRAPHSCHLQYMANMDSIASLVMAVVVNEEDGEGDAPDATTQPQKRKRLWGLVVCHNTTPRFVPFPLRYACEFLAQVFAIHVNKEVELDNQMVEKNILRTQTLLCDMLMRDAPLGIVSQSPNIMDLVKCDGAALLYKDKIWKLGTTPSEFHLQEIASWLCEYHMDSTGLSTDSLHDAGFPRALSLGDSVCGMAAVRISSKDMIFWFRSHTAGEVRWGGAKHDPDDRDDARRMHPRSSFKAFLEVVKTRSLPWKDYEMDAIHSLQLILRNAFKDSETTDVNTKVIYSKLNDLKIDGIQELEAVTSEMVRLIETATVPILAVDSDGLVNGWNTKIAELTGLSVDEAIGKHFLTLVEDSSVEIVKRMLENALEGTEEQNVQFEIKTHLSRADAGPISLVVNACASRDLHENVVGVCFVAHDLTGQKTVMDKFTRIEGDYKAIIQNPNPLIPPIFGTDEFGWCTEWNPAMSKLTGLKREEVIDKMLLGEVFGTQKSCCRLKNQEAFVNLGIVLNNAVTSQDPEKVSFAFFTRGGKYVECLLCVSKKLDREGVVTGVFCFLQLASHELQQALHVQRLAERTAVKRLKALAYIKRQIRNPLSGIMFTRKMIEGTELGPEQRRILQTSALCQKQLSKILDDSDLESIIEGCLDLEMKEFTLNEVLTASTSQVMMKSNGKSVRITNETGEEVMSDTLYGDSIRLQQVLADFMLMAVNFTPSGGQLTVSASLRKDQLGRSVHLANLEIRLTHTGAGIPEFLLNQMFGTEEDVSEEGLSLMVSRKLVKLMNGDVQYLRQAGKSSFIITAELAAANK

[3] = molecular target: HA-YFP-NOT9B ΔGWB (tobacco) (Arabidopsis thaliana); assay: co-IP; transiently transformed tobacco (N. benthamiana) leaves, kept in the dark, 5 min white light; total soluble protein, αGFP magnetic beads, IP buffer pH 7.8 with 450 mM NaCl, 4°C
[4] = molecular target: HA-YFP-NOT9B (tobacco) (Arabidopsis thaliana); assay: as above
[5] = molecular target: HA-YFP-NOT9B (leek cells) (Arabidopsis thaliana); assay: FRET or BRET; FRET-FLIM in bombarded leek epidermal cells, YFP fluorescence lifetime, YFP-tagRFP pair

B1: phyA-NLS-3×HA (protein, UniProt P14712 1-1122)
chain: MSGSRPTQSSEGSRRSRHSARIIAQTTVDAKLHADFEESGSSFDYSTSVRVTGPVVENQPPRSDKVTTTYLHHIQKGKLIQPFGCLLALDEKTFKVIAYSENASELLTMASHAVPSVGEHPVLGIGTDIRSLFTAPSASALQKALGFGDVSLLNPILVHCRTSAKPFYAIIHRVTGSIIIDFEPVKPYEVPMTAAGALQSYKLAAKAITRLQSLPSGSMERLCDTMVQEVFELTGYDRVMAYKFHEDDHGEVVSEVTKPGLEPYLGLHYPATDIPQAARFLFMKNKVRMIVDCNAKHARVLQDEKLSFDLTLCGSTLRAPHSCHLQYMANMDSIASLVMAVVVNEEDGEGDAPDATTQPQKRKRLWGLVVCHNTTPRFVPFPLRYACEFLAQVFAIHVNKEVELDNQMVEKNILRTQTLLCDMLMRDAPLGIVSQSPNIMDLVKCDGAALLYKDKIWKLGTTPSEFHLQEIASWLCEYHMDSTGLSTDSLHDAGFPRALSLGDSVCGMAAVRISSKDMIFWFRSHTAGEVRWGGAKHDPDDRDDARRMHPRSSFKAFLEVVKTRSLPWKDYEMDAIHSLQLILRNAFKDSETTDVNTKVIYSKLNDLKIDGIQELEAVTSEMVRLIETATVPILAVDSDGLVNGWNTKIAELTGLSVDEAIGKHFLTLVEDSSVEIVKRMLENALEGTEEQNVQFEIKTHLSRADAGPISLVVNACASRDLHENVVGVCFVAHDLTGQKTVMDKFTRIEGDYKAIIQNPNPLIPPIFGTDEFGWCTEWNPAMSKLTGLKREEVIDKMLLGEVFGTQKSCCRLKNQEAFVNLGIVLNNAVTSQDPEKVSFAFFTRGGKYVECLLCVSKKLDREGVVTGVFCFLQLASHELQQALHVQRLAERTAVKRLKALAYIKRQIRNPLSGIMFTRKMIEGTELGPEQRRILQTSALCQKQLSKILDDSDLESIIEGCLDLEMKEFTLNEVLTASTSQVMMKSNGKSVRITNETGEEVMSDTLYGDSIRLQQVLADFMLMAVNFTPSGGQLTVSASLRKDQLGRSVHLANLEIRLTHTGAGIPEFLLNQMFGTEEDVSEEGLSLMVSRKLVKLMNGDVQYLRQAGKSSFIITAELAAANK
- binding [3]: binds
- binding [4]: binds

B2: phyA-NLS-tagRFP (protein, UniProt P14712 1-1122)
chain: MSGSRPTQSSEGSRRSRHSARIIAQTTVDAKLHADFEESGSSFDYSTSVRVTGPVVENQPPRSDKVTTTYLHHIQKGKLIQPFGCLLALDEKTFKVIAYSENASELLTMASHAVPSVGEHPVLGIGTDIRSLFTAPSASALQKALGFGDVSLLNPILVHCRTSAKPFYAIIHRVTGSIIIDFEPVKPYEVPMTAAGALQSYKLAAKAITRLQSLPSGSMERLCDTMVQEVFELTGYDRVMAYKFHEDDHGEVVSEVTKPGLEPYLGLHYPATDIPQAARFLFMKNKVRMIVDCNAKHARVLQDEKLSFDLTLCGSTLRAPHSCHLQYMANMDSIASLVMAVVVNEEDGEGDAPDATTQPQKRKRLWGLVVCHNTTPRFVPFPLRYACEFLAQVFAIHVNKEVELDNQMVEKNILRTQTLLCDMLMRDAPLGIVSQSPNIMDLVKCDGAALLYKDKIWKLGTTPSEFHLQEIASWLCEYHMDSTGLSTDSLHDAGFPRALSLGDSVCGMAAVRISSKDMIFWFRSHTAGEVRWGGAKHDPDDRDDARRMHPRSSFKAFLEVVKTRSLPWKDYEMDAIHSLQLILRNAFKDSETTDVNTKVIYSKLNDLKIDGIQELEAVTSEMVRLIETATVPILAVDSDGLVNGWNTKIAELTGLSVDEAIGKHFLTLVEDSSVEIVKRMLENALEGTEEQNVQFEIKTHLSRADAGPISLVVNACASRDLHENVVGVCFVAHDLTGQKTVMDKFTRIEGDYKAIIQNPNPLIPPIFGTDEFGWCTEWNPAMSKLTGLKREEVIDKMLLGEVFGTQKSCCRLKNQEAFVNLGIVLNNAVTSQDPEKVSFAFFTRGGKYVECLLCVSKKLDREGVVTGVFCFLQLASHELQQALHVQRLAERTAVKRLKALAYIKRQIRNPLSGIMFTRKMIEGTELGPEQRRILQTSALCQKQLSKILDDSDLESIIEGCLDLEMKEFTLNEVLTASTSQVMMKSNGKSVRITNETGEEVMSDTLYGDSIRLQQVLADFMLMAVNFTPSGGQLTVSASLRKDQLGRSVHLANLEIRLTHTGAGIPEFLLNQMFGTEEDVSEEGLSLMVSRKLVKLMNGDVQYLRQAGKSSFIITAELAAANK
- binding [5]: binds

Further lines, results first:

- binding [1]: binds
Molecule: NLS-YFP-NOT9B (Arabidopsis)

- binding [2]: binds
Molecule: NOT9B ΔGWB (two-hybrid fusion) (Arabidopsis thaliana)
